Paper PMC5824958
Results are given in words; binding and its absence hold for the method and conditions named. Binding seen in cells or lysates may run through a third protein. Here binding means that the protein was enriched with, or labelled near, the bait; the list need not be complete. Tags and fused reporters may be left off the sequences shown. Values belong to the binder of their own block, whether it stands above or below them.

Target: T1, BRI2 (integral membrane protein 2B) (rat (endogenous in brain)) (UniProt Q5XIE8)
T1 sequence: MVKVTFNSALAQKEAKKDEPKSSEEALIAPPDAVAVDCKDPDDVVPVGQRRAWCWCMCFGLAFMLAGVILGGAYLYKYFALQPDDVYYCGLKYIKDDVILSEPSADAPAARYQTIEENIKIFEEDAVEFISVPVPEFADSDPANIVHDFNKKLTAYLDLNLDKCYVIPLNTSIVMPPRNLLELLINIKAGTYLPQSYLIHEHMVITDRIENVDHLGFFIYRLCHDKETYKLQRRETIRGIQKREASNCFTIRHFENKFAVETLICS
Experiment: affinity purification with mass spectrometry; mouse anti-BRI2 antibody (N-terminal region) on Dynabeads Protein G; pre-cleared rat cerebral cortex, hippocampus and cerebellum lysates (50 mM Tris-HCl pH 8.0, 120 mM NaCl, 4% CHAPS), overnight at 4 °C; co-precipitated proteins identified by nano-HPLC-MS/MS; hits absent from the two mock IPs or with a PSM ratio >= 2.0

B1: 2′,3′-cyclic-nucleotide 3′-phosphodiesterase (protein, UniProt P13233 1-420)
chain: MSTSFARKSHTFLPKIFFRKMSSSGAKDKPELQFPFLQDEDTVATLHECKTLFILRGLPGSGKSTLARLIVEKYHNGTKMVSADAYKIIPGSRADFSEEYKRLDEDLAGYCRRDIRVLVLDDTNHERERLDQLFEMADQYQYQVVLVEPKTAWRLDCAQLKEKNQWQLSLDDLKKLKPGLEKDFLPLYFGWFLTKKSSETLRKAGQVFLEELGNHKAFKKELRHFISGDEPKEKLDLVSYFGKRPPGVLHCTTKFCDYGKATGAEEYAQQDVVRRSYGKAFKLSISALFVTPKTAGAQVVLNEQELQLWPSDLDKPSSSESLPPGSRAHVTLGCAADVQPVQTGLDLLEILQQVKGGSQGEEVGELPRGKLYSLGKGRWMLSLAKKMEVKAIFTGYYGKGKPVPVHGSRKGGAMQICTII
- binding: binds

B5: Vesicular glutamate transporter 1 (protein, UniProt Q62634 1-560)
chain: MEFRQEEFRKLAGRALGRLHRLLEKRQEGAETLELSADGRPVTTHTRDPPVVDCTCFGLPRRYIIAIMSGLGFCISFGIRCNLGVAIVSMVNNSTTHRGGHVVVQKAQFNWDPETVGLIHGSFFWGYIVTQIPGGFICQKFAANRVFGFAIVATSTLNMLIPSAARVHYGCVIFVRILQGLVEGVTYPACHGIWSKWAPPLERSRLATTAFCGSYAGAVVAMPLAGVLVQYSGWSSVFYVYGSFGIFWYLFWLLVSYESPALHPSISEEERKYIEDAIGESAKLMNPVTKFNTPWRRFFTSMPVYAIIVANFCRSWTFYLLLISQPAYFEEVFGFEISKVGLVSALPHLVMTIIVPIGGQIADFLRSRHIMSTTNVRKLMNCGGFGMEATLLLVVGYSHSKGVAISFLVLAVGFSGFAISGFNVNHLDIAPRYASILMGISNGVGTLSGMVCPIIVGAMTKHKTREEWQYVFLIASLVHYGGVIFYGVFASGEKQPWAEPEEMSEEKCGFVGHDQLAGSDESEMEDEVEPPGAPPAPPPSYGATHSTVQPPRPPPPVRDY
- binding: binds

B6: Vesicular glutamate transporter 2 (protein, UniProt Q9JI12 1-582)
chain: MESVKQRILAPGKEGIKNFAGKSLGQIYRVLEKKQDNRETIELTEDGKPLEVPEKKAPLCDCTCFGLPRRYIIAIMSGLGFCISFGIRCNLGVAIVDMVNNSTIHRGGKVIKEKAKFNWDPETVGMIHGSFFWGYIITQIPGGYIASRLAANRVFGAAILLTSTLNMLIPSAARVHYGCVIFVRILQGLVEGVTYPACHGIWSKWAPPLERSRLATTSFCGSYAGAVIAMPLAGILVQYTGWSSVFYVYGSFGMVWYMFWLLVSYESPAKHPTITDEERRYIEESIGESANLLGAMEKFKTPWRKFFTSMPVYAIIVANFCRSWTFYLLLISQPAYFEEVFGFEISKVGMLSAVPHLVMTIIVPIGGQIADFLRSKQILSTTTVRKIMNCGGFGMEATLLLVVGYSHTRGVAISFLVLAVGFSGFAISGFNVNHLDIAPRYASILMGISNGVGTLSGMVCPIIVGAMTKNKSREEWQYVFLIAALVHYGGVIFYALFASGEKQPWADPEETSEEKCGFIHEDELDEETGDITQNYINYGTTKSYGATSQENGGWPNGWEKKEEFVQESAQDAYSYKDRDDYS
- binding: binds

B7: Vesicular inhibitory amino acid transporter (protein, UniProt O35458 1-525)
chain: MATLLRSKLTNVATSVSNKSQAKVSGMFARMGFQAATDEEAVGFAHCDDLDFEHRQGLQMDILKSEGEPCGDEGAEPPVEGDIHYQRGGAPLPPSGSKDQAVGAGGEFGGHDKPKITAWEAGWNVTNAIQGMFVLGLPYAILHGGYLGLFLIIFAAVVCCYTGKILIACLYEENEDGEVVRVRDSYVAIANACCAPRFPTLGGRVVNVAQIIELVMTCILYVVVSGNLMYNSFPGLPVSQKSWSIIATAVLLPCAFLKNLKAVSKFSLLCTLAHFVINILVIAYCLSRARDWAWEKVKFYIDVKKFPISIGIIVFSYTSQIFLPSLEGNMQQPSEFHCMMNWTHIAACVLKGLFALVAYLTWADETKEVITDNLPGSIRAVVNIFLVAKALLSYPLPFFAAVEVLEKSLFQEGSRAFFPACYGGDGRLKSWGLTLRCALVVFTLLMAIYVPHFALLMGLTGSLTGAGLCFLLPSLFHLRLLWRKLLWHQVFFDVAIFVIGGICSVSGFVHSLEGLIEAYRTNAED
- binding: binds

B9: CaM kinase-like vesicle-associated protein (protein, UniProt Q63092 1-504)
chain: MPFGCVTLGDKKNYNQPSEVTDRYDLGQVVKTEEFCEIFRAKDKTTGKLHTCKKFQKRDGRKVRKAAKNEIGILKMVKHPNILQLVDVFVTRKEYFIFLELATGREVFDWILDQGYYSERDTSNVVRQVLEAVAYLHSLKIVHRNLKLENLVYYNRLKNSKIVISDFHLAKLENGLIKEPCGTPEYLAPEVVGRQRYGRPVDCWAIGVIMYILLSGNPPFYEEVEEDDYENHDKNLFRKILAGDYEFDSPYWDDISQAAKDLVTRLMEVEQDQRITAEEAISHEWISGNAASDKNIKDGVCAQIEKNFARAKWKKAVRVTTLMKRLRAPEQSGTAATSDAATPGAAGGAVAAAAGGAAPASGASATVGTGGDAGCAAKSDDMASADRSATPATDGSATPATDGSVTPATDGSITPATDGSVTPATDRSATPATDGRATPATEESTVPAAQSSAAPAAKAAATPEPAVAQPDSTALEGATGQAPPSSKGEEATGCAQESQRVETS
- binding: binds

More lines, now with the values ahead:

- binding: binds
B2: Synaptotagmin-12 (protein, UniProt P97610 1-421)
chain: MAVDVTEYHLSVIKSPPGWEVGVYAAGALALLGIAAVSLWKLWTSGSFPSPSPFPNYDYRYLQQKYGEAYVEAKLKRVPPWNAQRTTTRGPPSRKGSLSIEDTFESISELGPLELMGRELDLAPYGTLRKSQSADSLNSISSVSNTFGQDFTLGQVEVSMDYDGASHTLHVAVLQGKDLLEREEATFESCFMRVSLLPDEQIVGISRIQRNAYSIFFDEKFSVPLDPTALEEKSLRFSVFGIDEDERNVSTGVVELKLSVLDLPLQPFSGWLYLQDQNKAADAVGEILLSLSYLPTAERLTVVVVKAKNLIWTNDKTTADPFVKVYLLQDGRKMSKKKTAVKRDDPNPVFNEAMIFSVPAIVLQDLSLRVTVAESSSDGRGDNVGHVIIGPGASGMGTTHWNQMLATLRRPVSMWHPVRRN

- binding: binds
B3: Tenascin-R (protein, UniProt Q05546 32-1356)
chain: RLEVTTERVQRQTVEEEGGASSYNTSSKEQPMVFNHVYNINVPLESLCSSGLEASAEQDVSAEDDTLAEYTGQTSDHESQVTFTHKINLPKKACPCASSAQVLQELLSRIEMLEREVSVLRDQCNTNCCQESAATGQLDYVPHCSGHGNFSFESCGCICNEGWFGKNCSEPYCPLGCSSRGVCVDGQCICDSEYSGDDCSELRCPTDCSSRGLCVDGECVCEEPYTGEDCRELRCPGDCSGKGQCANGTCLCQEGYAGEDCSQRRCLNACSGRGHCQEGLCICEEGYQGPDCSAVTPPEDLRVAGISDRSIELEWDGPMAVTEYVISYQPSLGGLQLQQRVPGDWSGVTITELEPGLTYNISVYAVISNILSLPITAKVATHLSTPQGLQFKTITETTVEVQWEPFSFSFDGWEISFTPKNNEGGVIAQLPSDVTSFNQTGLKPGEEYIVNVVALKEQARGPPTSASVSTVIDGPTQILVRDVSDTVAFVEWTPPRAKVDFILLKYGLVGGEGGKTTFRLQPPLSQYSVQALRPGSRYEVSISAVRGTNESDASSTQFTTEIDAPKNLRVGSRTATSLDLEWDNSEAEAQEYKVVYSTLAGEQYHEVLVPKGIGPTTKTTLTDLVPGTEYGVGISAVMNSKQSIPATMNARTELDSPRDLMVTASSETSISLIWTKASGPIDHYRITFTPSSGISSEVTVPRDRTSYTLTDLEPGAEYIISITAERGRQQSLESTVDAFTGFRPISHLHFSHVTSSSVNITWSDPSPPADRLILNYSPRDEEEEMMEVLLDATKRHAVLMGLQPATEYIVNLVAVHGTVTSEPIVGSITTGIDPPKNITISNVTKDSLTVSWSPPVAPFDYYEYPIDHPSGRLDSSVVPNTVTEFTITRLYPASQYEISLNSVRGREESERICTLVHTAMDSPMDLIATNITPTEALLQWKAPMGEVENYVIVLTHFAMAGETILVDGVSEEFQLVDLLPRTHYTVTMYATSGPLVSGTIATNFSTLLDPPANLTASEVTRQSALISWQPPRAAIENYVLTYKSTDGSRKELIVDAEDTWIRLEGLSENTDYTVLLQAAQEATRSSLTSTIFTTGGRVFSHPQDCAQHLMNGDTLSGVYTIFLNGELSHKLQVYCDMTTDGGGWIVFQRRQNGQTDFFRKWADYRVGFGNLEDEFWLGLDNYHRITAQGRYELRVDMRDGQEAVFAYYDKFAVEDSRSLYKLRIGGYNGTAGDSLSYHQGRPFSTEDRDNDVAVTNCAMSYKGAWWYKNCHRTNLNGKYGESRHSQGINWYHWKGHEFSIPFVEMKMRPYIHRLTAGRKRRALKF

- binding: binds
B4: Tropomodulin-2 (protein, UniProt P70566 1-351)
chain: MALPFQKGLEKYKNIDEDELLGKLSEEELKQLENVLDDLDPESATLPAGFRQKDQTQKAATGPFDREHLLMYLEKEALEQKDREDFVPFTGEKKGRVFIPKEKPVETRKEEKVTLDPELEEALASASDTELYDLAAVLGVHNLLNNPKFDEETTNGQGRKGPVRNVVKGEKAKPVFEEPPNPTNVEASLQQMKANDPSLQEVNLNNIKNIPIPTLKEFAKALETNTHVRKFSLAATRSNDPVALAFAEMLKVNKTLKSLNVESNFITGAGILALVEALRENDTLTEIKIDNQRQQLGTAVEMEIAQMLEENSRILKFGYQFTKQGPRTRVAAAITKNNDLVRKKRVEGDRR

- binding: binds
B8: Zinc transporter 3 (protein, UniProt Q6QIX3 1-388)
chain: MEPSPASGGSETTRLVSPRDRSSAGGGLRLKSLFTEPSEPLPEGPKLEGMAFHHCHKNRVSQSGLSPERAQARRQLYAACVVCFIFMAGEVVGGYLAHSLAIMTDAAHLLADIGSMMASLFSLWLSTRPATRTMTFGWHRSETLGALASVVSLWIVTGILLYLAFLRLLHSDYHIEAGAMLLTASIAVCANMIMAFVLHQTGAPHSHGPRGAEYAPLEEGHGHPLSLGNTSVRAAFVHVLGDLLQSLGVLAASILIYFKPQYKVADPISTFLFSICALGSTAPTLRDVLLVLMEGAPRSVEFEPVRDTLLSVPGVRATHDLHLWALTLTYHVASAHLAIDSTADPEAILAEASSRLYSRFGFSSCTLQVEKYRSEMAHCLRCREPPKA

- binding: binds
B10: Cell adhesion molecule 4 (protein, UniProt Q1WIM1 21-388)
chain: PGTAQEVQTENVTVAEGGVAEITCRLHQYDGSIVVIQNPARQTLFFNGTRALKDERFQLEEFSPRRVRIRLSDARLEDEGGYFCQLYTEDTHHQIATLTVLVAPENPVVEVREQAVEGGEVELSCLVPRSRPAAVLRWYRDRKELKGVSSGQENGKVWSVASTVRFRVDRKDDGGIVICEAQNQALPSGHSKQTQYVLDVQYSPTARIHASQAVVREGDTLVLTCAVTGNPRPNQIRWNRGNESLPERAEALGETLTLPGLVSADNGTYTCEAANKHGHARALYVLVVYDPGAVVEAQTSVPYAIVGGILALLVFLIICVLVGMVWCSVRQKGSYLTHEASGLDEQGEAREAFLNGSDGHKRKEEFFI
